{"source": "patent US20090048117A1", "about": "“MODULATION OF IMMUNE SYSTEM FUNCTION BY MODULATION OF POLYPEPTIDE ARGININE METHYLTRANSFERASES” (President and Fellows of Harvard College, priority 2003, published 2009)", "binders": {"B1": {"name": "HA-tagged NIP45 polypeptide (expression vector NIP45-HA, pCEP4-HA) (protein, not shown: small tags and cut ends)", "chain": "MAEPLRGRGPRSRGGRGARRARGARGRCPRARQSPARLIPDTVLVDLVSDSDEEVLEVADPVEVPVARLPAPAKPEQDSDSDSEGAAEGPAGAPRTLVRRRRRRLLDPGEAPVVPVYSGKVQSSLNLIPDNSSLLKLCPSEPEDEADLTNSGSSPSEDDALPSGSPWRKKLRKKCEKEEKKMEEFPDQDISPLPQPSSRNKSRKHTEALQKLREVNKRLQDLRSCLSPKQHQSPALQSTDDEVVLVEGPVLPQSSRLFTLKIRCRADLVRLPVRMSEPLQNVVDHMANHLGVSPNRILLLFGESELSPTATPSTLKLGVADIIDCVVLASSSEATETSQELRLRVQGKEKHQMLEISLSPDSPLKVLMSHYEEAMGLSGHKLSFFFDGTKLSGKELPADLGLESGDLIEVWG"}}, "key": {"[1]": {"target": "NFATp expressed from an NFATp expression plasmid", "test": "immunoprecipitation/Western blot from HepG2 cells"}, "[2]": {"target": "NFATp expressed from an NFATp expression plasmid", "test": "co-immunoprecipitation with anti-NFATp antibody from transfected HepG2 cells, anti-HA Western blot"}}, "note": "Results are given in words; binding and its absence hold for the method and conditions named. A result given as binding can be weak or reduced; the word gives no strength. Where a sequence is shown, tags or fusion partners need not be part of it. For some assays here: Binding seen in cells or lysates may run through a third protein."}
{"binder": "B1", "values": [{"measurement": "binding", "setting": "[1]", "result": "binds"}, {"measurement": "binding", "setting": "[2]", "result": "binds"}]}
